{"sequences": {"note": "Chains of the proteins cited; added tags and fusions are not shown. Residues count along the entry.", "UniProt P37173, residues 23-567": "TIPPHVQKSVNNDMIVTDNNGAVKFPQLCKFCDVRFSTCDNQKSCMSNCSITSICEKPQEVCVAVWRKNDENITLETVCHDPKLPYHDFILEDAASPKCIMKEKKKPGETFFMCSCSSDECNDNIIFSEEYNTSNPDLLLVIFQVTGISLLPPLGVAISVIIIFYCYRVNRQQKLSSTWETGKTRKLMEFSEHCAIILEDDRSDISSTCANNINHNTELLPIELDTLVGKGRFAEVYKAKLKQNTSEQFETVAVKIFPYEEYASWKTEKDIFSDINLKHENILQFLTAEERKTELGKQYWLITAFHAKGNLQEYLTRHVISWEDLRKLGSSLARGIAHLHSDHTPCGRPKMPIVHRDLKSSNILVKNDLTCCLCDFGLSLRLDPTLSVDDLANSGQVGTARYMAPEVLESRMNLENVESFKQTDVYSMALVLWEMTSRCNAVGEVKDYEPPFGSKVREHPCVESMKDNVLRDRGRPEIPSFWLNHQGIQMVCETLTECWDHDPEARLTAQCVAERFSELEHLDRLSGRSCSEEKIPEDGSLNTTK", "UniProt P21926": "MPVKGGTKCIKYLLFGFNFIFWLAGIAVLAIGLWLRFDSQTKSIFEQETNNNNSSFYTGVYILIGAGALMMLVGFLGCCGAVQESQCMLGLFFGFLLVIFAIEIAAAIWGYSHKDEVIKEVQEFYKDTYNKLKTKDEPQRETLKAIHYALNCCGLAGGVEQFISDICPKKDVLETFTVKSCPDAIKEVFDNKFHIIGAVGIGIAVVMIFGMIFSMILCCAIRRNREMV"}, "source": "paper PMC11428569", "target": "TGF-β type II receptor (TβR2) (human (endogenous in HSF)) (UniProt P37173)", "assay": "co-IP; HSF lysed in RIPA buffer, pre-cleared, immunoprecipitation with anti-TβR1 or anti-TβR2 antibody and protein A/G PLUS-agarose at 4 °C overnight, washed four times with RIPA, Western blot; cells under normoxia or hypoxia (2% O2, 24 h), with CD9 siRNA or Ad-CD9 overexpression", "note": "These are yes or no findings as the source states them, for the method shown. Binding seen in cells or lysates may run through a third protein. Some binding calls cover weakened binding; strength is not graded here.", "data": [{"substance": "tetraspanin CD9 (from UniProt P21926 1-228)", "values": [{"measurement": "binding", "result": "binds"}]}]}
